# Primary screen of a compound library

The filed quantity is “Percent Effect” (%).
How 0% and 100% were set is not recorded. Most values in the screen are low, and negative values occur.
The compounds are a random part of those screened.
Two or more numbers in one place are separate tests of the same structure; such repeats can differ widely.

Mtb cholesterol medium: 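Whole-cell growth test on Mycobacterium tuberculosis, read after 4 days in a medium based on cholesterol and the lipid DPPC; the read-out is not stated. Tested at 50 µM. Higher reads as more growth inhibition (inferred: compounds with an IC50 in retests scored well above the rest). About 69,000 compounds were tested under these conditions; 0.54% (about 370) showed 50% or more at least once.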
Mtb glucose medium: 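Whole-cell growth test on Mycobacterium tuberculosis, read after 3 days in glucose-containing 7H9 medium; the read-out is not stated. Tested at 50 µM. The record gives no direction; compounds that gave an IC50 in retests scored well above the rest, so higher reads as more growth inhibition. Size under these conditions: about 69,000 compounds, about 760 of them at 50% or above in at least one test.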

| SMILES | Mtb cholesterol medium | Mtb glucose medium |
|---|---|---|
| `O=C(Cn1cnc(NC(=O)c2ccccn2)n1)NCc1ccccc1` | 5.857% | 2.963% |
| `O=C(N[C@H]1CN(C2CCOCC2)C[C@@H]1C1CC1)c1cc(O)no1` | -1.257% and -10.25% | -5.702% |
| `Cc1ccc(CC(=O)N2CSCC2C(=O)N(C)Cc2ccco2)o1` (centres unmarked) | -10.8% | -3.963% |
| `Cc1c(Br)c(C(F)(F)F)nn1C(C)C(=O)O` (centres unmarked) | 1.859% | -17.97% |
| `c1cc(-c2noc(CN3CCc4c(ncn4C4CC4)C3)n2)cs1` | -11.52% | 7.683% and 11.31% |
| `COc1cccc(N2CCN(Cc3ccc4ccn(C)c4c3)CC2=O)c1` | 12.94% | 22.05% |
| `CC(C)c1cc(N2CCC3(CCN(C)C3)C2)ncn1` (centres unmarked) | -22.26% | -8.14% and -22.73% |
| `COCCN1CCC(c2nc3c([nH]2)CC(C)(C)CNC3=O)C1` (centres unmarked) | -12% | -29.69% |
| `COC(=O)N1CCc2ccccc2C1C(=O)NCC(F)(F)F` (centres unmarked) | 15.24% | 10.14% and -0.129% |
| `CCCS(=O)(=O)N1CCN(CCOC)c2nc(C)ccc2C1.O=C(O)C(F)(F)F` | -7.747% | -4.619% and -14.26% |
| `CC(Cn1cccn1)NC(=O)c1cccs1` (centres unmarked) | -17.56% | -30.25% |
| `CC(C)(C)OC(=O)N[C@H]1CCN(c2cncc(Br)c2)C1` | -11.76% | 4.96% and 10.91% |
| `Cc1oc(CNC(=O)Cc2cccc(OC(F)F)c2)cc1C(=O)O` | -1.49% | 4.178% and -20.48% |
| `CCN(Cc1ccco1)C(=O)C1=NN(c2ccccc2)C(=O)CN1` | -22.48% | -0.05392% and -16.65% |
| `COC(=O)CC(C)(C)CC(=O)N1CCC(C(F)(F)F)CC1` | 3.09% | 14.87% |
| `CCOC(=O)CCNC(=O)N1CCOC(Cc2cccc(OC)c2)C1` (centres unmarked) | -2.316% | 3.816% |
| `CC(C)C(=O)NCCc1nc(-c2ccncc2)n[nH]1` | 0.1487% and -29.85% | -3.857% |
| `CC(=O)N1CCCC(c2ccc(Br)cn2)C1` (centres unmarked) | -15.61% | -3.258% |
| `O=C(CCc1ccc(F)cc1)NS(=O)(=O)c1ccc2c(c1)OCCCO2` | 3.014% | -18.24% |
| `COc1ncccc1NC(=O)N(Cc1ccccn1)C1CC1` | -15.07% | 6.846% |
| `CN(c1ccncn1)C1CC2(CCN(C(=O)c3cncs3)C2)C1` (centres unmarked) | -17.3% | 3.953% |
| `CCn1nc2c(cc1=O)CN(c1ncnc3ccsc13)CC2` | 8.581% | 1.771% |
| `COCCCNC(=O)Cc1cc(-c2ccc(Cl)cc2)on1` | 0.2118% | 32.37% |
| `COc1ccc(-n2cnnc2SCC(=O)N(C)C(C)C)cn1` | 2.987% and -12.72% | -5.167% |
| `Cc1cnc(C(=O)N2CCC(C(=O)c3cc(F)ccc3F)CC2)cn1` | 18.78% | 4.608% |
| `Cc1noc(C)c1CN(C)C(=O)NC(C)c1cccs1` (centres unmarked) | -28.24% | -19.42% |
| `CC(=O)N1CCc2[nH]cnc2C1C1=CCCN(CCn2cccc2)C1` (centres unmarked) | 2.031% | -36.94% |
| `Cn1cnc2c1CCN(Cc1csc(C3CCCC3)n1)C2` | 7.151% | 29.94% |
| `COCCn1cncc1CN1CCC(C(C)=O)(c2ccccc2)CC1` | 4.855% | 9.496% |
| `O=C(NCCc1cccnc1)c1nc2c(s1)CCCN2C(=O)C1CC1.O=C(O)C(F)(F)F` | 22% | 25.31% |
| `CCC(=O)NCc1ccccc1Cn1ccnc1` | -2.544% and 5.143% | -23.78% |
| `CSCC(=O)N1CCN(CC(O)C(C)(C)C)CC1` (centres unmarked) | -1.998% | -1.054% and -1.567% |
| `CCN(Cc1nccn1C)C(=O)c1ccc(NCc2ccccc2)nc1` | 4.334% | -19.08% and 15.92% |
| `Cc1ccc(N2CCN(C(=O)CCC(F)(F)F)C(C)C2)cc1` (centres unmarked) | 34.41% | 40.58% and 61.74% |
| `COCC(=O)N1CCC2(CC1)c1ccccc1[C@@H](N1CCSCC1)[C@@H]2O` | -1.036% | -17.86% |
| `Cc1ccc(NS(=O)(=O)c2cc3c(c(C(=O)O)c2)OCCO3)c(F)c1` | -13.34% | -9.602% |
| `CS(=O)(=O)NCc1cc(-c2cc(F)cc(F)c2)nc(N2CCCC2)n1` | -12.6% | -0.9541% |
| `CCc1nnc2n1CCN(C(=O)c1cc3ccccc3[nH]1)C2` | -6.299% | 8.369% |
| `Cn1c(CN2CCOCC2)cc(=O)c(O)c1CN1CCCC1` | 23.43% | 10.37% |
| `O=C(c1ccoc1)N(Cc1ccccn1)C1CC1` | -16.93% | 2.259% |
| `O=C(O)C(F)(F)F.[H][C@]12CCCN(Cc3ccc(C)o3)[C@@]1([H])CN(C(=O)c1ccco1)C2` | 11.71% | 2.399% |
| `CNC(=O)c1cccc(NC(=O)NCc2ccc(SC)cc2)c1C` | -10.79% | -6.502% |
| `Cc1cc(Br)ccc1C(=O)NCCN1CCCCCC1` | 11.62% | 7.174% and 29.37% |
| `CC(C1CCN(Cc2cnc(-c3cccs3)nc2)CC1)N(C)C` (centres unmarked) | -12.43% | -7.688% and -2.976% |
| `CN(Cc1cccs1)c1cc(N2CCCC2CO)ncn1` (centres unmarked) | 4.013% | -1.917% |
| `CCn1ccc(NC(=O)C2CCC(=O)N2Cc2ccc(C)o2)n1` (centres unmarked) | -15.44% | -35.42% and -5.425% |
| `Cc1nc2ncc3c(=O)n(C)ccc3n2n1` | 16.01% | 4.258% |
| `COCCn1cc(NC(=O)NC(C)c2ccc(Cl)s2)cn1` (centres unmarked) | -11.55% | -16.06% |
| `CCN1CC(C(=O)N2CCN(CCn3cccc3)CC2)CCC1=O` (centres unmarked) | 2.494% | -15.18% |
| `CC(NC(=O)NC1CCN(Cc2ccncc2)CC1)c1ccccc1F` (centres unmarked) | 17.12% | 18.73% and 3.343% |
| `CN(CC(=O)N1CCC(Cc2cccc(C(N)=O)c2)C1)C1CCCC1` (centres unmarked) | 11.66% and -2.888% | 5.73% |
| `[H][C@@]12CCN(S(=O)(=O)C3CC3)[C@@]1([H])CCN2C(=O)c1ccnnc1` | -7.746% | -2.268% and 27.56% |
| `O=C(NC[C@H]1OC[C@@H](NC2CCC(F)(F)CC2)[C@@H]1O)C1CC1` | -19.12% | -4.168% and -1.121% |
| `CC1CN(C(=O)CN(Cc2ccco2)Cc2cccs2)CCO1` (centres unmarked) | -4.408% | -4.08% |
| `CCSC1(CNc2ncc(Br)cn2)CCOCC1` | 21.03% | 36.59% |
| `CCN(CC1CCOC1)C(=O)c1ccccc1S(C)(=O)=O` (centres unmarked) | 18.01% | -3.011% |
| `Cc1nn(C)c(N(C)C)c1CNCc1ccccc1CN(C)C` | -13.23% | -21.38% |
| `Cc1cnccc1CN(C)C(=O)c1cccc(CCC(C)(C)O)c1` | 9.486% and -0.3702% | -34.04% |
| `Cc1ccc(OCCCNC(=O)CN(C)c2ccc(C#N)cn2)cc1` | 2.344% | 3.42% |
| `Cc1nc(Nc2nnc(C)s2)cc(C2CCCN2c2ccncc2)n1` (centres unmarked) | -7.716% | 15.48% |
| `CCC(CO)N(Cc1cccc(O)c1)Cc1ccccc1C` (centres unmarked) | 7.315% | -1.774% |
| `Cc1cc(C)c2nc(CN3CCC(N4CCOC4=O)CC3)cc(O)c2c1` | -7.414% | -4.648% |
| `O=C(NC[C@H]1Cn2c(-c3ccccc3)cnc2CO1)C1CC1` | -22.7% | -21.27% and 0.7251% |
| `CCn1nc2c(cc1=O)CN(Cc1nc(C)c(C)o1)CC2` | -13% | -34.39% |
| `Cc1nc(C)n(CC(=O)N2CCCC(c3cc4ccccc4cn3)C2)n1` (centres unmarked) | -9.895% | -25.52% |
| `CC(C)NC(=O)c1noc2c1CN(Cc1cnn(C)c1)CC2` | 2.271% | 0.7147% |
| `NC(=O)NCC1CCCCN1C(=O)c1cccc(C(F)(F)F)c1` (centres unmarked) | -13.37% | 21.97% |
| `COCCN1CCC(NCc2cccc(F)c2)C1` (centres unmarked) | -43.21% | -35.28% |
| `CCN(C)CC(=O)N1CCc2nc(NC)nc(C(=O)N3CCCC3)c2C1` | 22.38% | -18.18% |
| `COCCc1noc(CN2CCCCC2Cn2cncn2)n1` (centres unmarked) | -2.798% | 10.91% |

Some entries from above, unchanged:

* COCCCNC(=O)Cc1cc(-c2ccc(Cl)cc2)on1 : Mtb cholesterol medium: 0.2118%; Mtb glucose medium: 32.37%
* CC(NC(=O)NC1CCN(Cc2ccncc2)CC1)c1ccccc1F (centres unmarked) : Mtb cholesterol medium: 17.12%; Mtb glucose medium: 18.73% and 3.343%
* O=C(NC[C@H]1OC[C@@H](NC2CCC(F)(F)CC2)[C@@H]1O)C1CC1 : Mtb cholesterol medium: -19.12%; Mtb glucose medium: -4.168% and -1.121%
* Cc1noc(C)c1CN(C)C(=O)NC(C)c1cccs1 (centres unmarked) : Mtb cholesterol medium: -28.24%; Mtb glucose medium: -19.42%
* COCCN1CCC(c2nc3c([nH]2)CC(C)(C)CNC3=O)C1 (centres unmarked) : Mtb cholesterol medium: -12%; Mtb glucose medium: -29.69%
* COc1ncccc1NC(=O)N(Cc1ccccn1)C1CC1 : Mtb cholesterol medium: -15.07%; Mtb glucose medium: 6.846%

Data taken from ChEMBL document CHEMBL3988442, “University of Dundee, Small-Polar-MMV Screening Library” (2021).